One molecule from patent publication US20140105855A1 can be followed below.

In the experiment the target is T1, preformed IL-17RC-IL-17F complex (IL-17F captured by immobilised IL-17RC) (human) (UniProt Q8NAC3+Q96PD4).
T1 sequence (chain, biotin on the C-terminal BirA ligase tag) 1: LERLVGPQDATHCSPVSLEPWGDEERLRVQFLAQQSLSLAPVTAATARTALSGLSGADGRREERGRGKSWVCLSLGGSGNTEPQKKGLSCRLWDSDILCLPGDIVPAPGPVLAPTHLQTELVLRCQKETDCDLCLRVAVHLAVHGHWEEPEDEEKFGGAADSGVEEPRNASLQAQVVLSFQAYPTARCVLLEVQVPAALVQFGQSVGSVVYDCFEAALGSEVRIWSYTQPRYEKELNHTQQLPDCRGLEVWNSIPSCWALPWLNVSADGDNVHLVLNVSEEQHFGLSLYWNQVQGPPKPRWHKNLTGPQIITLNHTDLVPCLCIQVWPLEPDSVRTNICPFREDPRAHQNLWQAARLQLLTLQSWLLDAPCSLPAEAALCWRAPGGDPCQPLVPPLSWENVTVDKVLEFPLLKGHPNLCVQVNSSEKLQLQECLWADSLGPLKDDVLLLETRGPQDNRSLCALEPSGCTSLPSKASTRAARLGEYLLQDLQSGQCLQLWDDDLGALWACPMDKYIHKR
T1 sequence (chain, biotin on the C-terminal BirA ligase tag) 2: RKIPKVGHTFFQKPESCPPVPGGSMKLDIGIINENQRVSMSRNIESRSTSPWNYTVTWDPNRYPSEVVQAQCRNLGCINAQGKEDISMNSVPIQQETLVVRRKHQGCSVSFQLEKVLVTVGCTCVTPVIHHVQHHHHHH
The experiment in a line: SPR, second receptor injected over IL-17F captured on immobilised IL-17RC. (Surface plasmon resonance follows binding to a sensor surface in real time, without labels.)

No constants are given. Whether binding was seen depends on the method and setting. Some binding calls cover weakened binding; strength is not graded here.

B1: IL-17RC extracellular domain (receptor, UniProt Q8NAC3 21-538, looked up)
chain: LERLVGPQDATHCSPVSLEPWGDEERLRVQFLAQQSLSLAPVTAATARTALSGLSGADGRREERGRGKSWVCLSLGGSGNTEPQKKGLSCRLWDSDILCLPGDIVPAPGPVLAPTHLQTELVLRCQKETDCDLCLRVAVHLAVHGHWEEPEDEEKFGGAADSGVEEPRNASLQAQVVLSFQAYPTARCVLLEVQVPAALVQFGQSVGSVVYDCFEAALGSEVRIWSYTQPRYEKELNHTQQLPDCRGLEVWNSIPSCWALPWLNVSADGDNVHLVLNVSEEQHFGLSLYWNQVQGPPKPRWHKNLTGPQIITLNHTDLVPCLCIQVWPLEPDSVRTNICPFREDPRAHQNLWQAARLQLLTLQSWLLDAPCSLPAEAALCWRAPGGDPCQPLVPPLSWENVTVDKVLEFPLLKGHPNLCVQVNSSEKLQLQECLWADSLGPLKDDVLLLETRGPQDNRSLCALEPSGCTSLPSKASTRAARLGEYLLQDLQSGQCLQLWDDDLGALWACPMDKYIHKR
B1: the binding entry is reported as “binds”.
